Assay results from the supplement of paper PMC4635364.
Counter-ions that a name gives are not always drawn. This is one part of the list. Single values are uncertain here, since repeats match poorly.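 Cells: ReNCell VM human fetal ventral-midbrain neural progenitors, differentiated mitogen-free. Blinded raters compared doublecortin-stained (early neurons) or tyrosine hydroxylase-stained (dopaminergic neurons) images with untreated wells, where 0 means no change. After repeats and both raters were averaged, compounds scoring 2 or above became hits for retesting.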

These compounds were tested on ReNCell VM (assay: dopaminergic neuron differentiation score (TH+ cell fraction vs untreated, manual image score) (score (0 to 3)); higher = more TH+ dopaminergic neuron differentiation). Settings: library: Tocriscreen; 2 uM; 4 weeks; BDNF 10 ng/ml + GDNF 10 ng/ml.

Dopaminergic neuron differentiation score, inactive:
COc1ccc(CC(=O)NC(/N=C(\NC#N)Nc2cccc3ncccc23)C(C)(C)C)cc1OC (configuration not stated) 1, CC1(c2ccccc2)OC(C(=O)O)=CC1=O (configuration not stated) [Acifran] 0, COC(=O)/C=C/c1cccc(N(Cc2ccc(-c3ccc(N(C)C)cc3)cc2)C(=O)C2CCCCC2)c1 [Fexaramine] 0, COc1cc(/C=C(\C#N)C(N)=O)cc(CSc2nc3ccccc3s2)c1O 0, CCCCCCCCCCCC1=C(O)C(=O)C=C(O)C1=O [Embelin] 0, CCN(CC)CCCCN1c2ccccc2Oc2ccc(Cl)cc21 [10-DEBC hydrochloride] 0, O=C(c1ccc(Nc2nccc(-c3cc4ccccc4s3)n2)cc1)N1CCC(N2CCCC2)CC1 0
